{
  "sequences": {"note": "Protein sequences, listed by entry. Tags and fused reporters are not part of them.", "UniProt P53350, whole entry, looked up": "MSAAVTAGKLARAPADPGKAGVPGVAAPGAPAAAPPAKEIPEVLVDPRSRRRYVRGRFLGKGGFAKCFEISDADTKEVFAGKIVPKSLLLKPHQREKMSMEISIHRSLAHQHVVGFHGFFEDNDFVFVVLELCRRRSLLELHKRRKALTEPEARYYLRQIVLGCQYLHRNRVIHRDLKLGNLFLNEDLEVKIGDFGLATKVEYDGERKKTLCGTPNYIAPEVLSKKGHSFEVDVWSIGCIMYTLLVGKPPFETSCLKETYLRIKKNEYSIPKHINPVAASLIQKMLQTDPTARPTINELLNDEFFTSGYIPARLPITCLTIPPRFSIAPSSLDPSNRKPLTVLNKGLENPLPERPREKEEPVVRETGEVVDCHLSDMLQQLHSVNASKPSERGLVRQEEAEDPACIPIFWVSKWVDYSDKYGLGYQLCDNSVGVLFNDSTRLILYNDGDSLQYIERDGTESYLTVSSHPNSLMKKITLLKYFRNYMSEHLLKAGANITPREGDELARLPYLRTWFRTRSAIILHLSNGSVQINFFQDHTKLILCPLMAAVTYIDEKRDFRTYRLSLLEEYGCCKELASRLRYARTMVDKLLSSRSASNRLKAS"},
  "source": "PubChem BioAssay AID720504",
  "about": "(National Center for Advancing Translational Sciences (NCATS), 2013)",
  "note": "The campaign covered roughly 360,000 compounds. About 10,000 (2.8%) were called active. The shares of active, inactive and inconclusive entries below differ from those in the screen. The call rests on the fitted dose curve; in most records, active means well fitted inhibition curve with a large enough effect; inconclusive means small, poorly fitted or top-dose-only effect; inactive means flat fitted curve, though single readings scatter. Potencies beside an inconclusive call are fits to weak or partial responses and may not hold up. On the % scale 0 is the no-effect control and ±100 the full control effect; potency means the concentration at half of the fitted maximal effect.",
  "data": [
    {"molecular_target": "Serine/threonine-protein kinase PLK1 (Homo sapiens) (UniProt P53350)", "assay": "qHTS for Inhibitors of PLK1-PDB (polo-like kinase 1 - polo-box domain): Primary Screen; further: nearly all actives have a fitted effect of over 65% in size; on max response, negative = inhibition: series mostly up to about 57 µM", "settings": "Plk1 PBD binding of FITC phosphopeptide, fluorescence polarization", "values": [
      {"smiles": "COC(=O)Cc1[nH]n(-c2nc3ccccc3s2)c(=O)c1C(C)=O", "Potency": "inconclusive: 21.2 µM [inhibitor, partial curve]"},
      {"smiles": "CC(=O)Nc1ccc(S(=O)(=O)/N=C2/NC(=O)/C(=C\\c3ccco3)S2)cc1", "Potency": "inconclusive: 18.9 µM [inhibitor, partial curve]"},
      {"smiles": "CCOc1cc(C(C(=O)NCC2CCCO2)N(C(=O)Cn2nnc3ccccc32)c2ccc(C(C)=O)cc2)ccc1O", "note": "(stereo unspecified)", "Potency": "inconclusive: 29.9 µM [inhibitor, partial curve]"},
      {"smiles": "Cc1ccccc1NC(=S)/C(=C(\\[O-])c1cc(C)n(Cc2ccccc2Cl)c1C)[n+]1ccccc1", "max response, negative = inhibition": "inconclusive: -34.4% [inhibitor]"},
      {"smiles": "CCCCc1nc2cc(C(=O)N3CCN(c4nc(C)cnc4C)CC3)ccc2o1", "max response, negative = inhibition": "inactive: -12%"},
      {"smiles": "CC(=O)Nc1ccc(N(C(=O)c2ccco2)C(C(=O)NC2CCCCC2)c2ccccc2)cc1", "note": "(stereo unspecified)", "Potency": "inconclusive: 53.2 µM [inhibitor, partial curve, poor fit]"},
      {"smiles": "Cc1cc(=O)[nH]c(N/N=C2/CCCC/C2=C\\c2ccccc2)n1", "Potency": "inconclusive: 21.2 µM [inhibitor, partial curve]"},
      {"smiles": "O=C(Nc1nccs1)c1ccc(-c2cccc([N+](=O)[O-])c2)o1", "Potency": "inconclusive: 23.8 µM [inhibitor, single point]"},
      {"smiles": "O=C(Nc1ccc(-c2n[nH]c(=S)o2)cc1)c1ccccc1", "max response, negative = inhibition": "inconclusive: -31% [inhibitor]"},
      {"smiles": "O=[N+]([O-])c1cc(C(F)(F)F)cc([N+](=O)[O-])c1NN=C1CCCCC1", "Potency": "inconclusive: 37.7 µM [inhibitor, single point]"},
      {"smiles": "Cc1c(C(=O)N2CCN(S(=O)(=O)c3ccccc3)CC2)oc2ccc(Br)cc12", "max response, negative = inhibition": "inactive: 2.56%"},
      {"smiles": "COCCNC(=O)C1(C)CCCN(C(=O)c2cc(F)cc(F)c2)C1", "note": "(stereo unspecified)", "max response, negative = inhibition": "inactive: -7.29%"},
      {"smiles": "Cc1ccc(-n2c(N)c(C(=O)N3CCOCC3)sc2=S)c(C)c1", "Potency": "active: 18.9 µM"},
      {"smiles": "O=C(c1cnn(C(=O)c2cccc(S(=O)(=O)N3CCOCC3)c2)c1)c1cc(Cl)cc(Cl)c1O", "Potency": "inconclusive: 37.7 µM [inhibitor, single point]"},
      {"smiles": "Cc1cnn(C(=S)NCc2ccco2)c1", "Potency": "inconclusive: 29.9 µM [inhibitor, partial curve]"},
      {"smiles": "O=C(NCCCNC(=O)c1ccccn1)c1ccc(Cl)cc1", "max response, negative = inhibition": "inactive: -0.81%"},
      {"smiles": "O=C(O)CSc1nnc(Cn2nnc3ccccc32)n1CCc1ccccc1", "max response, negative = inhibition": "inactive: -15.2%"},
      {"smiles": "Cc1cc(Oc2ccc(C#N)cc2)nc(NCc2ccccc2)n1", "Potency": "active: 2.67 µM"},
      {"smiles": "C=CCSc1nnc(NC(=O)CN2C(=O)NC3(CCCC3)C2=O)s1", "max response, negative = inhibition": "inactive: -2.75%"},
      {"smiles": "COc1ccc(N2C(=O)C(Cl)=C(Nc3ccccc3OC)C2=O)cc1", "max response, negative = inhibition": "inactive: 1.71%"},
      {"smiles": "O=C(O)CCc1ccc(-c2cccs2)o1", "Potency": "inconclusive: 37.7 µM [inhibitor, single point]"},
      {"smiles": "CCN(CC)S(=O)(=O)c1ccc(OC)c(NC(=O)c2cc([N+](=O)[O-])ccc2Cl)c1", "Potency": "inconclusive: 21.2 µM [inhibitor, single point]"},
      {"smiles": "COc1cc(Br)c(CC(=O)O)cc1OC", "max response, negative = inhibition": "inactive: 2.86%"},
      {"smiles": "CCCC1=Nc2cc(C(=O)NCCCN3CCOCC3)ccc2Sc2ccccc21", "max response, negative = inhibition": "inconclusive: -19% [inhibitor]"},
      {"smiles": "Cc1cc(C)c(C#N)c(Sc2nc(C)c([N+](=O)[O-])c(C)c2C#N)n1", "Potency": "inconclusive: 29.9 µM [inhibitor, partial curve]"},
      {"smiles": "O=C(CSc1ncc(C(F)(F)F)cc1Cl)N1CCN(S(=O)(=O)c2ccc3ccccc3c2)CC1", "Potency": "active: 23.8 µM"},
      {"smiles": "Cc1c(CC(=O)N[C@@H](C)C(=O)O)c(=O)oc2cc3occ(-c4ccccc4)c3cc12", "Potency": "inconclusive: 21.2 µM [inhibitor, single point]"},
      {"smiles": "Cc1ccc(Cl)cc1N1CCN(C(=O)Cn2ccc3ccccc3c2=O)CC1", "max response, negative = inhibition": "inactive: -6.98%"},
      {"smiles": "COc1ccc2oc(C(=O)OCC(=O)N(C)CC(=O)Nc3ccc(C)cc3)c(C)c2c1", "max response, negative = inhibition": "inactive: -3.17%"},
      {"smiles": "O=C(Nc1ccn(-c2ccccc2)n1)c1ccccc1Br", "Potency": "inconclusive: 8.44 µM [inhibitor, single point]"},
      {"smiles": "C/C(=N\\NC(=O)CC#N)c1cc2ccc(O)cc2oc1=O", "Potency": "inconclusive: 2.99 µM [inhibitor, full curve]"},
      {"smiles": "Cc1ccc(NC(=O)c2ccc(-c3nn(C)c(=O)c4ccccc34)cc2)cc1", "max response, negative = inhibition": "inactive: 3.76%"},
      {"smiles": "Cc1cc(Cl)ccc1NC(=S)NCCc1ccc(S(N)(=O)=O)cc1", "Potency": "inconclusive: 18.9 µM [inhibitor, partial curve]"},
      {"smiles": "S=C(S)OC1CC2CC1C1CCCC21", "note": "(stereo unspecified)", "Potency": "inconclusive: 26.7 µM [inhibitor, partial curve]"},
      {"smiles": "Cn1nc(N)c2ncc(-c3ccc(Cl)cc3)nc21", "max response, negative = inhibition": "inactive: 0.821%"},
      {"smiles": "O=C(Nc1cccc(S(=O)(=O)N2CCOCC2)c1)c1ccc(Cl)nc1", "max response, negative = inhibition": "inactive: 2.69%"},
      {"smiles": "COc1cccc(CN(C)S(=O)(=O)c2ccccc2Br)c1", "Potency": "inconclusive: 21.2 µM [inhibitor, single point]"},
      {"smiles": "CCOC(=O)c1cccc(N/C=C/C(=O)c2ccc(OC)c(OC)c2)c1", "max response, negative = inhibition": "inactive: -18.4%"},
      {"smiles": "CCOc1cc(C2NN=C(c3ccc(C)cc3)S2)ccc1O", "note": "(stereo unspecified)", "Potency": "inconclusive: 23.8 µM [inhibitor, single point]"},
      {"smiles": "Fc1ccccc1NC(=S)N/N=C/c1ccccc1Br", "Potency": "inconclusive: 26.7 µM [inhibitor, partial curve]"},
      {"smiles": "COc1ccccc1C(c1nnnn1C(C)(C)C)N1CCN(Cc2ccncc2)CC1", "note": "(stereo unspecified)", "Potency": "inconclusive: 37.7 µM [inhibitor, single point]"},
      {"smiles": "O=C(NNc1cc(Cl)ccc1Cl)C1CCC1", "Potency": "active: 26.7 µM"},
      {"smiles": "O=C(NCc1ccccc1)NC1(C(=O)N2CCN(c3ccccc3)CC2)CCCCC1", "Potency": "inconclusive: 26.7 µM [inhibitor, single point]"},
      {"smiles": "CC(C(=O)Nc1ccc2c(c1)OCCO2)c1ccc([N+](=O)[O-])cc1", "note": "(stereo unspecified)", "Potency": "active: 29.9 µM"},
      {"smiles": "CCOc1ccccc1N1CCN(Cc2cn[nH]c2-c2ccc(F)cc2)CC1", "max response, negative = inhibition": "inconclusive: -12.8% [inhibitor]"},
      {"smiles": "COc1ccccc1/C=c1\\sc2nc(-c3ccco3)nn2c1=O", "Potency": "inconclusive: 26.7 µM [inhibitor, partial curve]"},
      {"smiles": "COC(=O)C(Cc1cnc(Cl)s1)(C(=O)OC)c1ccc(C(F)(F)F)cc1[N+](=O)[O-]", "Potency": "inconclusive: 29.9 µM [inhibitor, single point]"},
      {"smiles": "NC(=O)C1CCN(C(=S)c2ccc(-c3ccc(Br)cc3)o2)CC1", "Potency": "active: 11.9 µM"},
      {"smiles": "Cc1ccsc1/C=C1\\Oc2cc(O)ccc2C1=O", "Potency": "inconclusive: 21.2 µM [inhibitor, single point]"},
      {"smiles": "COC(=O)N1CCCCC1c1cc(C(=O)NCc2ccc(F)cc2)no1", "note": "(stereo unspecified)", "max response, negative = inhibition": "inactive: 2.99%"},
      {"smiles": "Cc1ccc(N2CC(C(=O)Nc3nc4ccc(S(C)(=O)=O)cc4s3)CC2=O)cc1C", "note": "(stereo unspecified)", "Potency": "inconclusive: 33.6 µM [inhibitor, single point]"},
      {"smiles": "CC(C)OC(=O)c1cc(-c2ccc(C=O)o2)ccc1Cl", "max response, negative = inhibition": "inactive: -9.52%"},
      {"smiles": "CCOC(=O)C1CCN(Cc2cc(Cl)c3ccccc3c2O)CC1", "Potency": "inconclusive: 21.2 µM [inhibitor, partial curve]"},
      {"smiles": "CCOc1ccc(C(=O)COC(=O)Cc2n[nH]c(=O)c3ccccc23)cc1", "max response, negative = inhibition": "inactive: -11.8%"},
      {"smiles": "O=C(O)c1ccccc1-c1ccccc1C(=O)Nc1ccccc1", "max response, negative = inhibition": "inactive: -1.65%"},
      {"smiles": "CCCn1c(SCc2ccc(Cl)cc2)nc2c1c(=O)[nH]c(=O)n2C", "Potency": "active: 21.2 µM"},
      {"smiles": "Cc1[nH]n(-c2ccccc2)c(=O)c1C(C[N+](=O)[O-])c1ccc(F)cc1", "note": "(stereo unspecified)", "Potency": "inconclusive: 18.9 µM [inhibitor, partial curve]"},
      {"smiles": "CCC(C)NC(=O)c1cn(CC)c2cc(N3CCN(C(=O)c4ccco4)CC3)c(F)cc2c1=O", "note": "(stereo unspecified)", "max response, negative = inhibition": "inactive: -5.14%"},
      {"smiles": "S=C(NCCc1c[nH]c2ccccc12)NC1CCCCC1", "Potency": "inconclusive: 21.2 µM [inhibitor, single point]"},
      {"smiles": "C=CCNC(=O)Nc1cc(Cl)ccc1OC", "Potency": "active: 26.7 µM"},
      {"smiles": "Cc1cc(C)cc(OCC(O)CN2CCC(CN3C(=O)c4cccc5cccc(c45)C3=O)CC2)c1", "note": "(stereo unspecified)", "Potency": "active: 26.7 µM"},
      {"smiles": "Cc1cc(C)c(S(=O)(=O)Nc2cc(SCC(=O)O)c(O)c3ccccc23)cc1C", "Potency": "active: 1.5 µM"},
      {"smiles": "COc1ccc(N(C(=O)c2cccc([N+](=O)[O-])c2)S(=O)(=O)c2cccs2)cc1", "Potency": "inconclusive: 4.23 µM [inhibitor, full curve]"},
      {"smiles": "CC(=O)N1CCc2cc(S(=O)(=O)NC(C(=O)NC3CCCc4ccccc43)C(C)C)ccc21", "note": "(stereo unspecified)", "Potency": "inconclusive: 23.8 µM [inhibitor, single point]"},
      {"smiles": "COc1ccc(-c2noc3c2-c2nc(-c4ccccc4Cl)sc2CC3)cc1", "Potency": "inconclusive: 11.9 µM [inhibitor, partial curve]"},
      {"smiles": "CCn1c(COc2cc(C)ccc2C(C)C)nnc1SCC(=O)Nc1nccs1", "Potency": "inconclusive: 29.9 µM [inhibitor, partial curve]"},
      {"smiles": "CCCCC1C(=O)CC[C@H]2[C@@H]1CC(=O)[C@@H]2C/C=C\\CCCC(=O)O", "note": "(stereo partly specified)", "max response, negative = inhibition": "inactive: -18.6%"},
      {"smiles": "O=C1c2ccccc2C(=O)N1CCc1csc(NNc2nc(CCN3C(=O)c4ccccc4C3=O)cs2)n1", "max response, negative = inhibition": "inconclusive: -36% [inhibitor]"},
      {"smiles": "Cc1cccc(S(=O)(=O)Nc2ccc3c(c2)OCCO3)c1", "Potency": "inconclusive: 33.6 µM [inhibitor, partial curve]"},
      {"smiles": "CCOc1ccc(C(C)=O)cc1N1C(=O)C2C3C=CC(O3)C2C1=O", "note": "(stereo unspecified)", "Potency": "active: 26.7 µM"},
      {"smiles": "CCCN1CCN(C(=O)c2ccc(CS(=O)c3ccc(F)cc3)o2)CC1", "note": "(stereo unspecified)", "max response, negative = inhibition": "inactive: -10.3%"}
    ]}
  ]
}
